Laboratory results from patent US7897568B2, “Compositions for treatment of cancer” (priority 2006, dated 2011).
Results are given in words; binding and its absence hold for the method and conditions named. Binding seen in cells or lysates may run through a third protein. Some binding calls cover weakened binding; strength is not graded here. Sequences can lack the tags named with a protein.

Amino acid sequences for entries named in this document (tags omitted). A change or cut given only in a name is not applied to a line headed by its entry.
UniProt O76070: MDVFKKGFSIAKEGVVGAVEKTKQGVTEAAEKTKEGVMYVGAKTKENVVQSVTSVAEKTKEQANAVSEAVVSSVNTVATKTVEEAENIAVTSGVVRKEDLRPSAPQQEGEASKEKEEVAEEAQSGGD

Assays:
[1] = biological target: SNCG expressed in cells (MCF7-SNCG, T47D, or COS7 transfected with pCI-SNCG) (UniProt O76070); experiment: co-IP with anti-SNCG antibody from transfected COS7 cells, western blot with anti-GFP
[2] = biological target: SNCG expressed in cells (MCF7-SNCG, T47D, or COS7 transfected with pCI-SNCG) (UniProt O76070); experiment: co-IP with anti-SNCG antibody, western blot with anti-GFP
[3] = biological target: SNCG expressed in cells (MCF7-SNCG, T47D, or COS7 transfected with pCI-SNCG) (UniProt O76070); experiment: co-IP experiments of FIGS. 5C and 5D
[4] = biological target: SNCG expressed in cells (MCF7-SNCG, T47D, or COS7 transfected with pCI-SNCG) (UniProt O76070); experiment: co-localization and co-IP with anti-SNCG antibody in MCF7-SNCG cells

Measured: binding

KGNSALHVASQHGHLGCIQTLVRYGANVTMQNHG (peptide, not shown: large carriers) [enhanced green fluorescent protein (EGFP)-ANK fusion protein]
binds: all assays above
